# The list shows a part of the results. These are further read-outs of the screen, such as a control signal, another cell line or another target. No call is given for them. The list favours compounds with an active or inconclusive main result. Potencies come from curve fits of mixed quality, noted in brackets.
# Assay: qHTS Assay for Modulators of Lamin A Splicing
# Conditions: HeLa LMNA splicing GFP/RFP minigene ratio, 48 h
# Outline: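 Read-out is the ratio of GFP to DsRed2 object intensity, acquired by 488 nm laser-scanning cytometry on HeLa lamin A-EGFP minigene reporter cells. Compound incubation 48 hrs at 37 °C in Opti-MEM with 2% FBS; DMSO 0.5% final.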
# [1] = measured here: RFP viability control channel
# [2] = measured here: GFP splicing reporter channel
SMILES,AC50 [1],AC50 [2]
O=C(Nc1ccccc1NC(=O)c1c(F)c(F)c(F)c(F)c1F)c1c(F)c(F)c(F)c(F)c1F,"35.5 µM [falling, single point]",–
CCCCN1Cc2cc(C(=O)c3cc(OC)ccc3O)cnc2NC1=O,"12.6 µM [rising, partial curve, poor fit]","11.2 µM [rising, partial curve]"
Cc1cccc(N2CCN(C(=O)/C=C/c3cccs3)CC2)c1C,"31.6 µM [rising, single point]","15.8 µM [rising, single point]"
CC(O)[C@@H](O)[C@H]1CNc2nc(N)[nH]c(=O)c2N1 (stereo not given in full),–,"0.00501 µM [falling, full curve, poor fit]"
COc1ccc2nc(NC(=O)CSc3nc4cccnc4n3C)sc2c1,–,"1 µM [rising, full curve, poor fit]"
CC(=O)NC(c1cccs1)c1cc([N+](=O)[O-])c2cccnc2c1O (stereo not given),"11.2 µM [rising, partial curve]",–
O=C1CC(N2CCC(O)(c3ccc(Cl)cc3)CC2)C(=O)N1Cc1ccc(N2CCCC2=O)cc1 (stereo not given),"31.6 µM [rising, single point]","35.5 µM [rising, single point]"
CC(C)C[C@H](NC(=O)NCc1ccc(Cl)cc1)C(=O)O,"0.355 µM [rising, partial curve]","0.447 µM [rising, partial curve]"
Cc1cccc(C(=O)NC2CCN(CC(=O)Nc3ccc4c(c3)OCO4)CC2)c1,–,"0.141 µM [rising, full curve]"
COc1ccc(-c2cn3cccnc3n2)cc1NC(=O)c1cc(OC)c(OC)c(OC)c1,–,"28.2 µM [falling, partial curve]"
Cc1cc(Nc2ccc(F)cc2F)nc(-n2nc(C)cc2C)n1,–,"0.0251 µM [rising, full curve, poor fit]"
Cc1ccc(S(=O)(=O)Nc2ccc(Cl)cc2C(=O)c2ccccc2)cc1,"25.1 µM [rising, single point]",–
O=C(CSc1nc(=O)n(CCN2CCOCC2)c2c1CCC2)Nc1ccc(Cl)c(Cl)c1,–,"12.6 µM [falling, partial curve]"
CC(=O)N1CCN(c2ccccc2NC(=O)COc2cc(C)ccc2C(C)C)CC1,"31.6 µM [rising, single point]",–
CCc1ccc(CN(C)CC(=O)Nc2sccc2C#N)cc1,"35.5 µM [rising, single point]",–
Cc1cc(C)cc(NS(=O)(=O)c2ccc(NC(=S)Nc3ccccc3)cc2)c1,"14.1 µM [rising, single point]",–

# A portion from the list above, as a working copy:
SMILES,AC50 [1],AC50 [2]
COc1ccc2nc(NC(=O)CSc3nc4cccnc4n3C)sc2c1,–,"1 µM [rising, full curve, poor fit]"
CC(=O)NC(c1cccs1)c1cc([N+](=O)[O-])c2cccnc2c1O (stereo not given),"11.2 µM [rising, partial curve]",–

# From PubChem BioAssay AID1487 (National Center for Advancing Translational Sciences (NCATS), 2009)
